The target of one assay is T1, spPrp16p-HA (S. pombe) (UniProt Q9P774).
T1 sequence: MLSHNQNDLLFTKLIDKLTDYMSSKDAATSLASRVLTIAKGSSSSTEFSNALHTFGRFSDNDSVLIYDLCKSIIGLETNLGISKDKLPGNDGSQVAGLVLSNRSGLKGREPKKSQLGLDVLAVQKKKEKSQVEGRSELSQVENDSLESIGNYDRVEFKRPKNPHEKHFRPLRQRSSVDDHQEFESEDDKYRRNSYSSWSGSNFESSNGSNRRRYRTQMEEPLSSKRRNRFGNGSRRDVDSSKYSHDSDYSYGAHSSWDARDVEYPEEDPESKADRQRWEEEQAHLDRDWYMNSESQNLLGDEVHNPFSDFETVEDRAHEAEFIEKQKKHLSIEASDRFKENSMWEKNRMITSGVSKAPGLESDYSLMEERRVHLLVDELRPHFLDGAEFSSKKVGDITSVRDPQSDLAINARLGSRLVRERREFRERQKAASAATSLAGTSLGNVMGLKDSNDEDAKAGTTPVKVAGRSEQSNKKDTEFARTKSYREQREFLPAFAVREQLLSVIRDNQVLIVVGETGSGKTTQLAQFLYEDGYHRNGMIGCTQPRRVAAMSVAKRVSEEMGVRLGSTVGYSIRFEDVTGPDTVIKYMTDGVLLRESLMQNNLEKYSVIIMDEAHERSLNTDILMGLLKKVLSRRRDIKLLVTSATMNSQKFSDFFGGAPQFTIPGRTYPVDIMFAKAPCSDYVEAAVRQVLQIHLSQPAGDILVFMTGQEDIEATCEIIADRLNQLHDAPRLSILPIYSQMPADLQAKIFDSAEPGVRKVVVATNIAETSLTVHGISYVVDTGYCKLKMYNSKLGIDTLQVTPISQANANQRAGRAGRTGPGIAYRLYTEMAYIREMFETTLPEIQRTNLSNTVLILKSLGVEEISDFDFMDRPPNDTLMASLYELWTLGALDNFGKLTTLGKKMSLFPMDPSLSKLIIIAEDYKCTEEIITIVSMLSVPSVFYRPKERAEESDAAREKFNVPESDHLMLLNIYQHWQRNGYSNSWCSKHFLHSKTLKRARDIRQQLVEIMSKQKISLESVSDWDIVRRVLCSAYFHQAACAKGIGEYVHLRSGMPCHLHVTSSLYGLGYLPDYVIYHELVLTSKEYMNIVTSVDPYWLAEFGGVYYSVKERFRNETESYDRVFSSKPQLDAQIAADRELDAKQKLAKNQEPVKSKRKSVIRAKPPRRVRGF
Briefly: co-IP; spPrp16-HA immunoprecipitated with an anti-HA antibody from a S. pombe strain expressing spPrp16-HA and Chp1p-FLAG; western blot with anti-FLAG antibody. A general note: In western blotting, separated proteins are transferred to a membrane and probed.

A further assay deals with T2, Cid12p-TAP (S. pombe) (UniProt O74518).
T2 sequence: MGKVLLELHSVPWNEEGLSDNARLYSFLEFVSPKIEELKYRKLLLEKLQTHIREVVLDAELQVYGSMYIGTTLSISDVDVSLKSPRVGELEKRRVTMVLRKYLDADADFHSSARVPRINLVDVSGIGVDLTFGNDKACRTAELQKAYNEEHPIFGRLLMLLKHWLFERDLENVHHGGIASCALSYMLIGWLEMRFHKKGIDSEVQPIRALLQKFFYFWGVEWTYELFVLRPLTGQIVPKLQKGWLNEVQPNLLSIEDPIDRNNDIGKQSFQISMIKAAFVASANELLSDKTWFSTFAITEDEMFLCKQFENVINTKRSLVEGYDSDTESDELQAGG
The assay can be described thus: co-IP; Cid12-TAP immunoprecipitated with IgG-Sepharose beads from extracts of S. pombe cells expressing spPrp16p-HA and Cid12-TAP; samples treated with or without RNase A; western blot with anti-HA and anti-protein A antibody; Sepharose beads with no antibody as negative control.

No constants are given. Whether binding was seen depends on the method and setting. In cells and extracts the contact can be indirect. Some entries that bind do so weakly or less than the wild type. Where a sequence is shown, tags or fusion partners need not be part of it.

Drawing on PMC5322907, this text covers binding for two molecules.

B1: Chp1p-FLAG (protein, UniProt Q10103 1-960)
chain: MVSVKPLPDIDSNEGETDADVYEVEDILADRVNKNGINEYYIKWAGYDWYDNTWEPEQNLFGAEKVLKKWKKRKKLIAKGLLEPFDAEDNEAKKMKREKEILRQQRQKRKSELTQLSQKVKEKFKKMRKKPARRIVTIANDEEEEDDQTMDEDAFERKSMQGELKERNLTDKTSTLSTSFGETSPDVNPFYLSEWPTVTDSILLSKSLSSDAIPLKNGEIKSTMLMPSDSDNSVPGIQNSNNLENTGAFVENANSPQSNTPLSTFRHSSPLSLSPVITSDNDVANSLFFSNSTPLPSSLKIKKEAPKLETHTILVSDNSGSLTKQDILSYFAFIKGNIEVFFLKSPKKDKVCNMAYIQFDSIEQAKLAYDKGHPSWHVTLVKGKISTDMEECKVSKSILKTTPSKKANARSVSFTQTTTDTLSESEKFASNVDLDENFDFNVNVTNEDAKQLKKSVIGSSWTTVNNDWNSVSKSDQTFENDGASKVVPAGNITLNSDNSLHHSISESEDLSSASTLSDYFRFVLRVGKSLYYAGELSFDISKLKAETEHQQLLRSLVSCKQVDVLRFVTSQYLEVFGTCLTKVLSGSLCIRSDVDMTHFKNILNRGNGAGIVLGSNYTLLLFTEDNNALMNLYDCQGQSNSPFWMVIFEPLESILVEWSAKNLRPKKPYHKSQSYLSYLLQLGHIDLHKIGAFQATQILIVSKQPSPEAEELEDTFREAAIPTFRGLEIPESLFLSQNVFVFLNVSLEDDFDQLQFLTLAKRKSCKFFLFGLSLPLKSPNDSHVGTDFKKNNEPLDKLTYSQYLRPMFPKGGVVSVTLSALIKTPRLLELISPFLEIKKDSWILILPPSIVDMVKSYFVTNNPDKSLLEIQNLLNTLQRYLTNPALKNVTLYQDWDIVIDDSADVSLASTLQLYQKKNYDKYRRFVLIHELKNELTPVNGLDIVDYDEFKETFMRAIGLK
For the molecule B1, the binding result with spPrp16p-HA (S. pombe) is recorded as “no binding”.

B2: spPrp16p-HA (protein, UniProt Q9P774 1-1173)
chain: MLSHNQNDLLFTKLIDKLTDYMSSKDAATSLASRVLTIAKGSSSSTEFSNALHTFGRFSDNDSVLIYDLCKSIIGLETNLGISKDKLPGNDGSQVAGLVLSNRSGLKGREPKKSQLGLDVLAVQKKKEKSQVEGRSELSQVENDSLESIGNYDRVEFKRPKNPHEKHFRPLRQRSSVDDHQEFESEDDKYRRNSYSSWSGSNFESSNGSNRRRYRTQMEEPLSSKRRNRFGNGSRRDVDSSKYSHDSDYSYGAHSSWDARDVEYPEEDPESKADRQRWEEEQAHLDRDWYMNSESQNLLGDEVHNPFSDFETVEDRAHEAEFIEKQKKHLSIEASDRFKENSMWEKNRMITSGVSKAPGLESDYSLMEERRVHLLVDELRPHFLDGAEFSSKKVGDITSVRDPQSDLAINARLGSRLVRERREFRERQKAASAATSLAGTSLGNVMGLKDSNDEDAKAGTTPVKVAGRSEQSNKKDTEFARTKSYREQREFLPAFAVREQLLSVIRDNQVLIVVGETGSGKTTQLAQFLYEDGYHRNGMIGCTQPRRVAAMSVAKRVSEEMGVRLGSTVGYSIRFEDVTGPDTVIKYMTDGVLLRESLMQNNLEKYSVIIMDEAHERSLNTDILMGLLKKVLSRRRDIKLLVTSATMNSQKFSDFFGGAPQFTIPGRTYPVDIMFAKAPCSDYVEAAVRQVLQIHLSQPAGDILVFMTGQEDIEATCEIIADRLNQLHDAPRLSILPIYSQMPADLQAKIFDSAEPGVRKVVVATNIAETSLTVHGISYVVDTGYCKLKMYNSKLGIDTLQVTPISQANANQRAGRAGRTGPGIAYRLYTEMAYIREMFETTLPEIQRTNLSNTVLILKSLGVEEISDFDFMDRPPNDTLMASLYELWTLGALDNFGKLTTLGKKMSLFPMDPSLSKLIIIAEDYKCTEEIITIVSMLSVPSVFYRPKERAEESDAAREKFNVPESDHLMLLNIYQHWQRNGYSNSWCSKHFLHSKTLKRARDIRQQLVEIMSKQKISLESVSDWDIVRRVLCSAYFHQAACAKGIGEYVHLRSGMPCHLHVTSSLYGLGYLPDYVIYHELVLTSKEYMNIVTSVDPYWLAEFGGVYYSVKERFRNETESYDRVFSSKPQLDAQIAADRELDAKQKLAKNQEPVKSKRKSVIRAKPPRRVRGF
As to B2, the binding result in the assay with Cid12p-TAP (S. pombe) is reported as “binds”.
